Experimental data as given in US11701333B2, “Antibacterial compounds” (KENT INNOVATION & ENTERPRISE, priority 2017, dated 2023).
Some entries share one result that the patent states for a list of compounds.

Tested on: S. aureus
Assay: drop test activity screening
Format: cell-based
Conditions: screening tests of Table 2, statement in text
Excerpt: The ability of each of the compounds of the invention to impact bacterial growth and viability has been tested. This has been undertaken using a novel drop-test method for initial activity screening, as well as using conventional growth curve analysis methodology. This novel class of antimicrobial agent has shown bactericidal activity against Gram +ve (e.g. S. aureus, Bacillus megaterium) and bacteriostatic activity against Gram −ve isolates (e.g. E. coli).
The compounds were screened initially by drop testing methods and then by growth rate methods as it was identified that drop testing methods could give false negatives.

Row | Structure (SMILES) | antimicrobial activity in the tests
1 | CCCCNC(=O)NCCS(=O)(=O)O [Compound 48, reference compound] | show no activity in the tests
2 | CCCCNC(=S)NCCS(=O)(=O)O [Compound 49, reference compound] | show no activity in the tests
3 | CCCCNC(=S)NCCCS(=O)(=O)O [Compound 51, reference compound] | show no activity in the tests
4 | CCCCNC(=S)NCS(=O)(=O)O [Compound 47, reference compound] | show no activity in the tests
5 | CCCCNC(=O)NCS(=O)(=O)O [Compound 46, reference compound] | show no activity in the tests
6 | CCCCNC(=O)NCCCS(=O)(=O)O [Compound 50, reference compound] | show no activity in the tests
